No constants are given. Whether binding was seen depends on the method and setting. A result given as binding can be weak or reduced; the word gives no strength.
What was measured:
[1] = target: T1, NRR (rice (Oryza sativa L.)) (UniProt Q5ZEF1); experiment: two-hybrid; confirmation of single bait-E3 pairs in yeast; growth on DDO (SD-Leu-Trp) and QDO (SD-Leu-Trp-His-Ade); called yeast co-transformation assay for OsPAL1-OsFBK16
T1 sequence: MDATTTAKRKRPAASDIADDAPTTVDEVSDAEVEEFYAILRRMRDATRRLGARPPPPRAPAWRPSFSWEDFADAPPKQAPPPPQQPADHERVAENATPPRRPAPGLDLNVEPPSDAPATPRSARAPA

[2] = target: T1, NRR (rice (Oryza sativa L.)); experiment: two-hybrid; library screen: AH109 carrying the pGBKT7-bait mated with Y187 carrying the pGADT7-UbE3 library (1499 E3 ORFs) at 30 °C for 20-24 h; selection on SD-Leu-Trp-His-Ade; positive clones identified by PCR and sequencing

Substance | binding [1] | binding [2]
OsFBX68 | binds | binds
OsFBX82 | binds | binds
OsPUB69 (enzyme) | binds | binds
OsFBX389 | binds | binds
HBTB8 | binds | binds
